Measurements published in publication PMC6391914.
These are yes or no findings as the source states them, for the method shown. Some entries that bind do so weakly or less than the wild type.

Sequences of proteins named here, by UniProt entry; tags and fusion partners are left off. Residues count along the entry.
UniProt P63279: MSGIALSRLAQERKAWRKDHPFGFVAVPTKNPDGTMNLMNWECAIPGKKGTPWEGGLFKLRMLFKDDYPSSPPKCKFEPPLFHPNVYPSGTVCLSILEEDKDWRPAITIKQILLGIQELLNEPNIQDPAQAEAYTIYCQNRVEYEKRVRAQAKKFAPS
UniProt P55854, residues 1-92: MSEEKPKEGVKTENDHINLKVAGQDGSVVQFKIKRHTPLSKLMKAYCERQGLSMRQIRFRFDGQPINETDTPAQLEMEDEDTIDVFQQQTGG

Biological target: GST-UBC9 (UniProt P63279)
Test: pull-down; both purified

- binding: binds
Substance: His6-SUMO-3 (from UniProt P55854 1-92)
